Source: publication PMC4892509, “Binding of the Fkh1 Forkhead Associated Domain to a Phosphopeptide within the Mph1 DNA Helicase Regulates Mating-Type Switching in Budding Yeast” (PLoS Genetics, 2016)

The chains behind the UniProt entries cited, without tags or fusion partners. Residues count along the entry.
UniProt P40562, residues 762-993: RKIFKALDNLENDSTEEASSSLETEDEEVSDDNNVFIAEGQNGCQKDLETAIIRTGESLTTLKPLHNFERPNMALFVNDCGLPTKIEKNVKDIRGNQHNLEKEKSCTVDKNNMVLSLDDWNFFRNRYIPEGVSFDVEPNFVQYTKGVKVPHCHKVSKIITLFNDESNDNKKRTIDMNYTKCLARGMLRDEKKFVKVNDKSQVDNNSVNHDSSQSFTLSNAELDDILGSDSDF

Assays:
[1] = biological target: GBD-fkh1(Δ50–202) (S. cerevisiae) (UniProt P40466); assay: two-hybrid; directed assays in strain PJ69-4A: GBD-Fkh1 forms as bait, GAD fusions as prey; reporter genes HIS3 and ADE2, growth on media lacking histidine or both adenine and histidine, compared with the GAD alone
[2] = biological target: GBD-Mph1 lacking amino acids 751–810 (S. cerevisiae) (UniProt P40562); assay: two-hybrid; directed assays in strain PJ69-4A: GBD-Mph1 regions and mutants as bait, Fkh1-FHA or known Mph1 partners as prey; growth on selective media compared with the GAD alone

binding [1]	binding [2]	Molecule
no binding	–	GAD-Mph1-Ct (amino acids 762–993) (from UniProt P40562 762-993) (domain or fragment)
–	no binding	GAD fusion of Fkh1-FHA (amino acids 50–202) (domain or fragment, UniProt P40466 50-202) LSIAREVNAYAKIAGCDWTYYVQKLEVTIGRNTDSLNLNAVPGTVVKKNIDIDLGPAKIVSRKHAAIRFNLESGSWELQIFGRNGAKVNFRRIPTGPDSPPTVLQSGCIIDIGGVQMIFILPEQETIISDYCLNHLMPKLLSTYGTNGNNNPL

Results are given in words; binding and its absence hold for the method and conditions named. For some assays here: Sequences can lack the tags named with a protein.
